US20200405832A1 (MINERVA BIOTECHNOLOGIES, published 2020)

Target: MUC1* as on MUC1* positive bone marrow cells (hematopoietic stem cells of the bone marrow) (Homo sapiens (Human))
Assay: FACS on bone marrow cells

binding	Binder
no binding	mouse monoclonal antibody MN-E6 (antibody, V domains shown, also called Min-E6) VH: EVKVVESGGDLVKPGGSLKLSCVVSGFTFSRYGMSWVRQTPGKRLEWVATISGGGTYIYYPDSVKGRFTISRDNAKNTLYLQMSSLKSEDTAMYHCTRDNYGRNYDYGMDYWGQGTSVTVSS VL: QIVLTQSPAIMSASPGEEVTLTCSATSSVSYIHWFQQRPGTSPKLWIYSTSNLASGVPVRFSGSGYGTSYSLTISRMEAEDAATYYCQQRSSSPFTFGSGTKLEIK
binds	mouse monoclonal antibody MN-C3 (antibody, V domains shown, also called Min-C3) VH: QVQLQQSGPELVRPGVSVKISCKGSGYRFTDYAMNWVKQSHAKSLEWIGVISTFSGNTNFNQKFKGKATMTVDKSSSTAYMELARLTSEDSAMYYCARSDYYGPYFDYWGQGTTLTVSS VL: DVLMTQTPLSLPVSLGDQASISCRSSQTIVHSNGNTYLEWYLQKPGQSPKLLIYKVSNRFSGVPDRFSGSGSGTDFTLKINRVEAEDLGVYYCFQGSHVPFTFGSGTKLEIK

Results are given in words; binding and its absence hold for the method and conditions named. A result given as binding can be weak or reduced; the word gives no strength.
